Experimental data published in doi:10.1101/2020.09.09.290171 (bioRxiv, 2020).
Results are given in words; binding and its absence hold for the method and conditions named. Some results given as binding are weak or reduced against the parent protein; the word gives no strength. Sequences can lack the tags named with a protein.

Legend:
Test in all cases: peptide or protein array
[1] = target: NRPD1 peptide 12 of the NRPD1_(1-300) peptide array (Arabidopsis thaliana) (UniProt Q9LQ02)
[2] = target: RDR2 peptide 13 of the RDR2_(771-970) peptide array (Arabidopsis thaliana) (UniProt O82504)
[3] = target: RDR2 peptide 9 of the RDR2_(771-970) peptide array (Arabidopsis thaliana) (UniProt O82504)

B1: recombinant RDR2 amino acids 771-970 fused to His and HA tags, expressed in E. coli (domain or fragment, UniProt O82504 771-970)
chain: ETSVVIGKVVVTKNPCLHPGDIRVLDAIYEVHFEEKGYLDCIIFPQKGERPHPNECSGGDLDGDQFFVSWDEKIIPSEMDPPMDYAGSRPRLMDHDVTLEEIHKFFVDYMISDTLGVISTAHLVHADRDPEKARSQKCLELANLHSRAVDFAKTGAPAEMPYALKPREFPDFLERFEKPTYISESVFGKLYRAVKSSLAQ
Q: B1 was tested. Which binding [1] did it give?
A: Its binding is “binds”.

B2: recombinant NRPD1 amino acids 1-300 fused to His and FLAG tags, expressed in E. coli (domain or fragment, UniProt Q9LQ02 1-300)
chain: MEDDCEELQVPVGTLTSIGFSISNNNDRDKMSVLEVEAPNQVTDSRLGLPNPDSVCRTCGSKDRKVCEGHFGVINFAYSIINPYFLKEVAALLNKICPGCKYIRKKQFQITEDQPERCRYCTLNTGYPLMKFRVTTKEVFRRSGIVVEVNEESLMKLKKRGVLTLPPDYWSFLPQDSNIDESCLKPTRRIITHAQVYALLLGIDQRLIKKDIPMFNSLGLTSFPVTPNGYRVTEIVHQFNGARLIFDERTRIYKKLVGFEGNTLELSSRVMECMQYSRLFSETVSSSKDSANPYQKKSDT
Q: For B2, which binding [2] is on record?
A: Its binding is “no binding (tested: ~200 ng in 8 ml)”.

Q: What about the binding [3] of the same binder?
A: Its binding is “no binding (tested: ~200 ng in 8 ml)”.
